Source: paper PMC10246235

T1: MeeY-FLAG (Bacillus subtilis) (UniProt O34997)
T1 sequence: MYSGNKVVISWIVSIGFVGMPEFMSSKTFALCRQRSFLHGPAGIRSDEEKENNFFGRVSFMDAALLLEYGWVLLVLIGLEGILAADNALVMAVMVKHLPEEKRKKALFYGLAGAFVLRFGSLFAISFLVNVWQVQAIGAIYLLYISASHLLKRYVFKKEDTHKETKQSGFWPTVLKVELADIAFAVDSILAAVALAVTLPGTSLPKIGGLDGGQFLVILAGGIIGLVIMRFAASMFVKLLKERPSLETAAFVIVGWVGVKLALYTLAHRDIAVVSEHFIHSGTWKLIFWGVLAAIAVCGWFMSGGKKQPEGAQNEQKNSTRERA

T2: MeeF-FLAG (Bacillus subtilis) (UniProt O34447)
T2 sequence: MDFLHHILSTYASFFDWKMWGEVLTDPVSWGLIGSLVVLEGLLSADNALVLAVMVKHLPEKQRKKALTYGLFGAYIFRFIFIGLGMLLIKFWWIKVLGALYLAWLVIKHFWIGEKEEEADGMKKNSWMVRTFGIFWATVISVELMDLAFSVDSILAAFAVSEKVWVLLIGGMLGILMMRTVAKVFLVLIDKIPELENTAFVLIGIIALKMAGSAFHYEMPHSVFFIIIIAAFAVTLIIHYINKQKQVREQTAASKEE

B1: PrsA (protein, UniProt P24327 20-292)
chain: CSSGDKEVIAKTDAGDVTKGELYTNMKKTAGASVLTQLVQEKVLDKKYKVSDKEIDNKLKEYKTQLGDQYTALEKQYGKDYLKEQVKYELLTQKAAKDNIKVTDADIKEYWEGLKGKIRASHILVADKKTAEEVEKKLKKGEKFEDLAKEYSTDSSASKGGDLGWFAKEGQMDETFSKAAFKLKTGEVSDPVKTQYGYHIIKKTEERGKYDDMKKELKSEVLEQKLNDNAAVQEAVQKVMKKADIEVKDKDLKDTFNTSSTSNSTSSSSSNSK
B2: MgtE (protein, UniProt O34442 1-451)
chain: MVQNMTYDELILRIIILLRDGKIRDFRSVIDELQPYDMAFIFKEMPEKHRARYLSYLTVDDITDMIGELEREFQLVVLNKVGKTKATLAMNKMDNDDLAQLLEEMDEELKEQLLSSMEASESKAVQLLMNYPADSAGRMMTNRYVWIPQHYTVKDAVVKLKSFAEIAESINYLYVINESKQLVGVLSYRDLILGEPEEKVQDLMFTRVISADALQDQEEVARLIERYDFLAIPVVEENNVLVGIVTVDDIIDVVIREADEDYEKFAASGKDITFDTKAYVAAYRRLPWLILLLFIGLISGSIISYFEDALKQVVALAFFMPMVSGMTGNTGTQSLAVVIRGLSKEEMNKKTIVRLIFREFRTSIFIGAVCSVLIAIVSIIWQGNALLGFVVASSLFLTLIIGTMSGTIIPIILHKLKVDPAIASGPLITTLNDILSLLIYFGIATAFIHSL
B3: SecDF (protein, UniProt O32047 1-737)
chain: MKKGRLIAFFLFVLLIGTGLGYFTKPAANNITLGLDLQGGFEVLYDVQPVKKGDKITKDVLVSTVEALNRRANVLGVSEPNIQIEGNNRIRVQLAGVTNQNRAREILATEAQLSFRDANDKELLNGADLVENGAKQTYDSTTNEPIVTIKLKDADKFGEVTKKVMKMAPNNQLVIWLDYDKGDSFKKEVQKEHPKFVSAPNVSQELNTTDVKIEGHFTAQEAKDLASILNAGALPVKLTEKYSTSVGAQFGQQALHDTVFAGIVGIAIIFLFMLFYYRLPGLIAVITLSVYIYITLQIFDWMNAVLTLPGIAALILGVGMAVDANIITYERIKEELKLGKSVRSAFRSGNRRSFATIFDANITTIIAAVVLFIFGTSSVKGFATMLILSILTSFITAVFLSRFLLALLVESRWLDRKKGWFGVNKKHIMDIQDTDENTEPHTPFQKWDFTSKRKYFFIFSSAVTVAGIIILLVFRLNLGIDFASGARIEVQSDHKLTTEQVEKDFESLGMDPDTVVLSGEKSNIGVARFVGVPDKETIAKVKTYFKDKYGSDPNVSTVSPTVGKELARNALYAVAIASIGIIIYVSIRFEYKMAIAAIASLLYDAFFIVTFFSITRLEVDVTFIAAILTIIGYSINDTIVTFDRVREHMKKRKPKTFADLNHIVNLSLQQTFTRSINTVLTVVIVVVTLLIFGASSITNFSIALLVGLLTGVYSSLYIAAQIWLAWKGRELKKDSAQ
B4: FloA (protein, UniProt P54466 1-331)
chain: MDPSTLMILAIVAVAIIVLAVFFTFVPVMLWISALAAGVKISIFTLVGMRLRRVIPNRVVNPLIKAHKAGLNVGTNQLESHYLAGGNVDRVVNALIAAQRANIELTFERCAAIDLAGRDVLEAVQMSVNPKVIETPFIAGVAMDGIEVKAKARITVRANIERLVGGAGEETIVARVGEGIVSTIGSSDNHKKVLENPDMISQTVLGKGLDSGTAFEILSIDIADVDIGKNIGAILQTDQAEADKNIAQAKAEERRAMAVAQEQEMRARVEEMRAKVVEAEAEVPLAMAEALREGNIGVMDYMNIKNIDADTEMRDSFGKLTKDPSDEDRKS
B5: SwrC (protein, UniProt O31501 1-1052)
chain: MNHVINFVLKNKFAVWLMTIIVTAAGLYAGMNMKQESIPDVNMPYLTISTTYPGATPSQVADEVTKPVEQAVQNLDGVSVVTSTSYENASSVMIEYDYEKDMDKAKTEAAEALENVNLPDDAKDPEISRYSLNSFPILTLSVSSDKDNLQELTKQVEDSLVSKLEGIEGVASVQVSGQQVEEVEFSFKEDKLKEYGLDEDTVKQVIQGSDVTTPLGLYTFGNEEKSVVVSGDIETIKDLKNMRIPTASASSAGSSAASQAGAQSAQAAQSAQAAAQVQQSASTAVPTVKLSDIATIKDVKKAESVSRTNGKDSIGINIVKANDANTVEVADDVKAELKKFKEDHKGFNYSATLDMAEPITQSVDTMLSKAIFGAIFAIVIILLFLRDIKSTLISVVSIPLSLLIALLVLQQLDITLNIMTLGAMTVAIGRVVDDSIVVIENIYRRMRLKDEPLRGKALVREATKEMFKPIMSSTIVTIAVFLPLALVGGQIGELFIPFALTIVFALAASLVISITLVPMLAHSLFKKSLTGAPIKAKEHKPGRLANIYKKVLNWALSHKWITSIIAVLMLLGSLFLVPLIGASYLPSEEEKTMQLTYSPEPGETKKEAENEAEKAEKILLDRKHVDTVQYSLGSGSPLAGGDSNGALFYIKYESDTPDFDKEKDNVLKEIQKQSDRGEWKSQDFSSSGNNNELTYYVYGDSENDIKDTVKDIEKIMKDEKDLKNVNSGLSSTYDEYTFVADQEKLSKLGLTASQISQALMSQTSQEPLTTVKKDGKELDVNIKTEKDEYKSVKDLENKKITSATGQEVKIGDVAKVKEGSTSDTVSKRDGKVYADVTGEVTSDNVTAVSAAIQKKIDKLDHPDNVSIDTGGVSADIADSFTKLGLAMLAAIAIVYLVLVITFGGALAPFAILFSLPFTVIGALVGLYVSGETISLNAMIGMLMLIGIVVTNAIVLIDRVIHKEAEGLSTREALLEAGSTRLRPILMTAIATIGALIPLALGFEGGSQVISKGLGVTVIGGLISSTLLTLLIVPIVYEVLAKFRKKKPGTEEE
B6: SdhA (protein, UniProt P08065 1-586)
chain: MSQSSIIVVGGGLAGLMATIKAAESGMAVKLFSIVPVKRSHSVCAQGGINGAVNTKGEGDSPWEHFDDTVYGGDFLANQPPVKAMCEAAPSIIHLLDRMGVMFNRTPEGLLDFRRFGGTQHHRTAYAGATTGQQLLYALDEQVRRYEVAGLVTKYEGWEFLGAVLDDDRTCRGIVAQNLTNMQIESFRSDAVIMATGGPGIIFGKSTNSMINTGSAASIVYQQGAYYANGEFIQIHPTAIPGDDKLRLMSESARGEGGRVWTYKDGKPWYFLEEKYPAYGNLVPRDIATREIFDVCVNQKLGINGENMVYLDLSHKDPKELDIKLGGIIEIYEKFMGDDPRKLPMKIFPAVHYSMGGLWVDYDQMTNIPGLFAAGECDYSMHGGNRLGANSLLSAIYGGMVAGPNAVKYVNGLESSAEDMSSSLFDAHVKKEEEKWADIMSMDGTENAYVLHKELGEWMTANVTVVRHNDKLLKTDDKIQELMERFKKININDTTKWSNQGAMFTRQFSNMLQLARVITLGAYNRNESRGAHYKPDYPERNDDEWLKTTMAKHVSPYEAPEFEYQDVDVSLITPRKRDYSKKKVAK
B7: YknW (protein, UniProt O31709 1-231)
chain: METNVEKNSGTATEKPSLFGVITSPSVQFERIRERPAVWGPLLIVAAIIIVGAVLQSLGTDYSELLKSQDTQGLSAEQMETVATITKFGGMAGAIIGGIAALFIAPLIYWLCVKVSGGVTTYKKMLSLSLFVSLISSLGLLVNGIVAFTTDVNPLYSTTSLAGIIPSDGALASVLNTFEIFSIWSFVLLAIGLHKTGGISKKAGWISAIILFGILVVFSLFSGLINSVAGA
B8: OppF (protein, UniProt P24137 1-305)
chain: MTEKLLEIKHLKQHFVTPRGTVKAVDDLSFDIYKGETLGLVGESGCGKSTTGRSIIRLYEATDGEVLFNGENVHGRKSRKKLLEFNRKMQMIFQDPYASLNPRMTVADIIAEGLDIHKLAKTKKERMQRVHELLETVGLNKEHANRYPHEFSGGQRQRIGIARALAVDPEFIIADEPISALDVSIQAQVVNLMKELQKEKGLTYLFIAHDLSMVKYISDRIGVMYFGKLVELAPADELYENPLHPYTKSLLSAIPLPDPDYERNRVRQKYDPSVHQLKDGETMEFREVKPGHFVMCTEAEFKAFS

molecular target: T1, MeeY-FLAG (Bacillus subtilis); experiment: affinity purification with mass spectrometry; C-terminally FLAG-tagged bait captured on anti-FLAG M2 magnetic beads from B. subtilis lysate (overnight LB culture with 50 uM Mn; lysozyme, sonication, DNase, 1% Triton X-100), 30 °C 3 h, three PBS washes; eluted with glycine (pH 3) for 30 min at room temperature; LC-MS/MS, at least 2 peptides

binding, binds:
B1
B2
B3

molecular target: T1, MeeY-FLAG (Bacillus subtilis); experiment: affinity purification with mass spectrometry; C-terminally FLAG-tagged bait captured on anti-FLAG M2 magnetic beads from B. subtilis lysate (overnight LB culture with 50 uM Mn; lysozyme, sonication, DNase, 1% Triton X-100), 30 °C 3 h, three PBS washes; eluted by heating at 95 °C for 10 min; LC-MS/MS, at least 2 peptides

binding, binds:
B1
B4
B5
B6
B7
B3
B8

molecular target: T2, MeeF-FLAG (Bacillus subtilis); experiment: as above

binding, binds:
B1
B4
B5
B6
B7
B3
B8

Results are given in words; binding and its absence hold for the method and conditions named. Binding seen in cells or lysates may run through a third protein. These calls come from enrichment with a bait or labelling near it, and not all partners need be listed. Where a sequence is shown, tags or fusion partners need not be part of it.
